This experiment deals with Pseudomonas aeruginosa. Description: microbe, parasite or virus in culture. Conditions: ATCC 27853.

Converted amounts (≈) assume the structure as drawn.

Take `O=C(O)c1cn(C2CC2)c2cc(N3CCNCC3)c(F)cc2c1=O` [CIPROFLOXACIN]: the MIC was found to be 1.81 µM (≈ 0.6 µg/mL).

Source of the values: ChEMBL document CHEMBL4665629, “An optimised series of substituted N-phenylpyrrolamides as DNA gyrase B inhibitors” (Eur J Med Chem, 2019).
